Assay results as given in paper PMC7819943, “Rice protein-binding microarrays: a tool to detect cis-acting elements near promoter regions in rice”.
The other results are listed elsewhere or left out.

Protein sequences, listed by entry. Tags and fused reporters are not part of them.
UniProt Q0JBA9, entry or part of it: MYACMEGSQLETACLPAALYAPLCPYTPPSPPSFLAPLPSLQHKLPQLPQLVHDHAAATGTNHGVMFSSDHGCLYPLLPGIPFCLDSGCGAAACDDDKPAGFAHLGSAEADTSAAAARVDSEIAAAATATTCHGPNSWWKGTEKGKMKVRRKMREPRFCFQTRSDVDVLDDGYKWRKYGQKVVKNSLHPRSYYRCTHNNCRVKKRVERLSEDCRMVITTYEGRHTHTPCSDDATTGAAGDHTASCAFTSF

The sequences below were run against OsWRKY34 (Oryza sativa, UniProt Q0JBA9 1-250) (assay: protein-binding microarray (RPBM); PBS, 2% BSA, 51.3 ng/ul salmon testes DNA, 50 uM zinc acetate, 200 nM TF, 25 C, 1 h; high values mean tight binding). Conditions: protein: recombinant; tags: N-terminal polyhistidine and DsRed monomer fusion (pET32a); label: CyDye5-dUTP incorporated in the synthesized complementary strand; 3' TTTTT single-stranded linker to array surface; dsDNA, one strand shown.
Method in brief: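 In PBS with 2% BSA, salmon testes DNA and 50 µM zinc acetate, 200 nM protein was incubated on a custom Agilent array at 25 °C for 1 h and then washed off. The array had been made double-stranded by primer extension with Cy5-dUTP and blocked with 2% BSA. The proteins were transcription factors fused N-terminally to polyhistidine and DsRed, expressed in E. coli BL21-CodonPlus and purified on Ni–NTA. The binding signal is per-feature fluorescence intensity (arbitrary units) from an Axon 4000B scanner.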
With “CGCCCATGGACCGGTTCTAGCGTTGGTATGGAGAGCTTCCCGGAGTCACCTAGTGCAG” the binding signal was 8620 fluorescence intensity (a.u.). In the case of “CACGTCGCGTCCCACCACGTCTCTCTCTCCTACTGTTTTCCGGAGTCACCTAGTGCAG”, the binding signal is reported as 10500 fluorescence intensity (a.u.). In the case of “TCCTTTCATCTCTTCTTCTGTGTGTGCGTGTCTGCGAAGCCGGAGTCACCTAGTGCAG”, the binding signal is reported as 11400 fluorescence intensity (a.u.). With “TTTTGTGCTTAACACCATATTATGAAACTTTCATCATTTCCGGAGTCACCTAGTGCAG” the binding signal was 9120 fluorescence intensity (a.u.). “CATTTTTAACCCCTACTACTTGCCGCACCTTGTGACCATTCGGAGTCACCTAGTGCAG” was tested, and the binding signal was 8970 fluorescence intensity (a.u.). For “CTGGTCATTGTGTCTATGGATGGTGGGGTTCTCAGCTTCACGGAGTCACCTAGTGCAG”, the binding signal was 12700 fluorescence intensity (a.u.). “CTCGCGCGCCCCGCCCGTTTCGCCTCGGCCGCCTCCTCCACGGAGTCACCTAGTGCAG” was tested, and the binding signal was 8480 fluorescence intensity (a.u.). With “CCTCGACCACAAGCACTGCTTCAACTGTTTCAACTTCATACGGAGTCACCTAGTGCAG” the binding signal was 12000 fluorescence intensity (a.u.). For “CCACTGACCACTGTCGCCATTGTCGCCAAGAGCTTAGAGCCGGAGTCACCTAGTGCAG”, the binding signal was 9450 fluorescence intensity (a.u.). For “ATCAGTCCTACTTAATTACCAGGCCACACTCAACCTTTTTCGGAGTCACCTAGTGCAG”, the binding signal was 9730 fluorescence intensity (a.u.). With “CGCCGCCTCCGCTCCACTCTCCTCGCCGTCGCCGGTCCTCCGGAGTCACCTAGTGCAG” the binding signal was 11500 fluorescence intensity (a.u.). In the case of “AGCTTCCTCCGTTTTTTTCTTTCTTTCTTTCTTTTTTTTTCGGAGTCACCTAGTGCAG”, the binding signal is reported as 11800 fluorescence intensity (a.u.). “ACCGATCTCTCTCGCGCGCGCGCGTGCCGCTCTTGCACTACGGAGTCACCTAGTGCAG” was tested, and the binding signal was 8192 fluorescence intensity (a.u.). With “TTGACTCAACATATGGTTAGTAACCATCGTTCCAATTTATCGGAGTCACCTAGTGCAG” the binding signal was 8140 fluorescence intensity (a.u.). “GGAAAACTTGCTGCCGAACACAGCTCTTCTAGTTTCTCATCGGAGTCACCTAGTGCAG” was tested, and the binding signal was 9750 fluorescence intensity (a.u.). With “CTCCTTTTGCGCTGCTTCTCCTCGCCGCCACCGTGTAGCGCGGAGTCACCTAGTGCAG” the binding signal was 8230 fluorescence intensity (a.u.). With “AGGAAGCCATCCTCTCTGGATCTCTGCTTGTGCTACTGTACGGAGTCACCTAGTGCAG” the binding signal was 8270 fluorescence intensity (a.u.). For “AAGCACATCAAACTTATAGCCATATTAAAGCCCACTTTTTCGGAGTCACCTAGTGCAG”, the binding signal was 8450 fluorescence intensity (a.u.). “AGTTCAGAAAGTGTGCCCGCAATAATTCCGTGACTATAATCGGAGTCACCTAGTGCAG” was tested, and the binding signal was 8420 fluorescence intensity (a.u.). For “TCCGCCGCCGCCCGCCGCCGCCGCCGCCGCCTACACAACCCGGAGTCACCTAGTGCAG”, the binding signal was 10500 fluorescence intensity (a.u.). “TATATATATATATATATATGATATGTAGGACCAATTATCACGGAGTCACCTAGTGCAG” was tested, and the binding signal was 10400 fluorescence intensity (a.u.). In the case of “CGCTCAATTCCGCTTTAATTTGGTGACTTGGCGATCGATCCGGAGTCACCTAGTGCAG”, the binding signal is reported as 8100 fluorescence intensity (a.u.). In the case of “TCCTTGGAGGTCTCGCGCGATGTGCTCTCTCTTAAAAACTCGGAGTCACCTAGTGCAG”, the binding signal is reported as 8370 fluorescence intensity (a.u.). “ACCAGCTGCATTACTTGTATCAATATTTACAGAACCAACTCGGAGTCACCTAGTGCAG” was tested, and the binding signal was 9430 fluorescence intensity (a.u.). “GTGGCCAAAATAATATAATCTTCACCGTCATCGATCCATTCGGAGTCACCTAGTGCAG” was tested, and the binding signal was 8280 fluorescence intensity (a.u.). “GTTTTAGGGTATTTTCTGACCGTTTTCATCCGTTATCGACCGGAGTCACCTAGTGCAG” was tested, and the binding signal was 10900 fluorescence intensity (a.u.). For “CAGAAGCAACTCTCCCGTGTTAAACTAATTATTCTGTTGTCGGAGTCACCTAGTGCAG”, the binding signal was 9440 fluorescence intensity (a.u.). “TGATCTTTTTAGTTTTACGTTTTTTCCTTTCCACAACAAACGGAGTCACCTAGTGCAG” was tested, and the binding signal was 9200 fluorescence intensity (a.u.). For “ATTGTTTTTGTGTTACCCAATATTAAATCTGTTGTAGCCTCGGAGTCACCTAGTGCAG”, the binding signal was 10600 fluorescence intensity (a.u.). With “GTTTATTGTAGCACCACATTGTCAATCATGGAGTAATTAGCGGAGTCACCTAGTGCAG” the binding signal was 8720 fluorescence intensity (a.u.). “ATAATAACCTAGTATGTTCTTCTCGTGTTTTATGCTTAACCGGAGTCACCTAGTGCAG” was tested, and the binding signal was 9660 fluorescence intensity (a.u.). With “TAGTATACATACGGCTACCTGCCTATCTGTATCACACCACCGGAGTCACCTAGTGCAG” the binding signal was 8290 fluorescence intensity (a.u.). For “TCGCCGTCCGCCTCATCGAGCTTGATCGCTGCTACAACACCGGAGTCACCTAGTGCAG”, the binding signal was 9180 fluorescence intensity (a.u.). “AGATTAGGCCATCACCAATGCGTACCTTTGACCCGTGCCCCGGAGTCACCTAGTGCAG” was tested, and the binding signal was 8160 fluorescence intensity (a.u.). With “TGTCGTTGGGAATTTTGTTGTGATGGAAGACTCGCTGGTTCGGAGTCACCTAGTGCAG” the binding signal was 9670 fluorescence intensity (a.u.). For “CAACTTTTTTTCAAACTTCCAACTTTCTTCAAACTTTCAACGGAGTCACCTAGTGCAG”, the binding signal was 8060 fluorescence intensity (a.u.). “AAGTAATTCAATCGAGCGCAATCGTTAACAGTAATTCTTTCGGAGTCACCTAGTGCAG” was tested, and the binding signal was 9350 fluorescence intensity (a.u.). In the case of “GTACACTTGTATTTTTGCCACGCTGTTTCTTATTCATCGTCGGAGTCACCTAGTGCAG”, the binding signal is reported as 10300 fluorescence intensity (a.u.). In the case of “CCTCTATTTCATATTATACGTCGTTGACTTTTTTCTTAGTCGGAGTCACCTAGTGCAG”, the binding signal is reported as 17400 fluorescence intensity (a.u.). In the case of “CTCCCCTGTCGCCCGCCGCCGCATTCCCACCTTCCGTCGTCGGAGTCACCTAGTGCAG”, the binding signal is reported as 8090 fluorescence intensity (a.u.). With “TTTCCTGTTGCACACGCATGGCCATTTTCAATTGTTCAAACGGAGTCACCTAGTGCAG” the binding signal was 14900 fluorescence intensity (a.u.). With “GAGTATTTTCTCCTTTTCTGTTGACCCTGCCTACTCCTACCGGAGTCACCTAGTGCAG” the binding signal was 15900 fluorescence intensity (a.u.).
